Results on 38 targets are retold here after the supplement of paper PMC10849652.

Sequences of proteins named here, by UniProt entry; tags and fusion partners are left off. A change or cut given only in a name is not applied to a line headed by its entry.
UniProt P0DPB6, whole entry, looked up: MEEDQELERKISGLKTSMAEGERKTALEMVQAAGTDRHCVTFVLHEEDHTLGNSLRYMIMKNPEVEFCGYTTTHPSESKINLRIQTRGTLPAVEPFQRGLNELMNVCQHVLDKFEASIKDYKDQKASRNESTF
UniProt Q8N490: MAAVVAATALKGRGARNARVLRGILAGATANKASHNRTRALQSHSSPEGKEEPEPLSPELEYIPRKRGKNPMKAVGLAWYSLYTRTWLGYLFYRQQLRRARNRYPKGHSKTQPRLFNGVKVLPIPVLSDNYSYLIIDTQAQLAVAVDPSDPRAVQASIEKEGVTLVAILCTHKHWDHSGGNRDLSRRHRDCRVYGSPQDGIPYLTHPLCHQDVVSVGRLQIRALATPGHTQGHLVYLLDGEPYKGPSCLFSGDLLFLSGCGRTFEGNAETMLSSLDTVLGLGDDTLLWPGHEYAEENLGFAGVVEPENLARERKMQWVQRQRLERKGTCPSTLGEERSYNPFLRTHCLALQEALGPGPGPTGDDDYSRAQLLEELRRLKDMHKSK
UniProt Q9H9Y6, whole entry, looked up: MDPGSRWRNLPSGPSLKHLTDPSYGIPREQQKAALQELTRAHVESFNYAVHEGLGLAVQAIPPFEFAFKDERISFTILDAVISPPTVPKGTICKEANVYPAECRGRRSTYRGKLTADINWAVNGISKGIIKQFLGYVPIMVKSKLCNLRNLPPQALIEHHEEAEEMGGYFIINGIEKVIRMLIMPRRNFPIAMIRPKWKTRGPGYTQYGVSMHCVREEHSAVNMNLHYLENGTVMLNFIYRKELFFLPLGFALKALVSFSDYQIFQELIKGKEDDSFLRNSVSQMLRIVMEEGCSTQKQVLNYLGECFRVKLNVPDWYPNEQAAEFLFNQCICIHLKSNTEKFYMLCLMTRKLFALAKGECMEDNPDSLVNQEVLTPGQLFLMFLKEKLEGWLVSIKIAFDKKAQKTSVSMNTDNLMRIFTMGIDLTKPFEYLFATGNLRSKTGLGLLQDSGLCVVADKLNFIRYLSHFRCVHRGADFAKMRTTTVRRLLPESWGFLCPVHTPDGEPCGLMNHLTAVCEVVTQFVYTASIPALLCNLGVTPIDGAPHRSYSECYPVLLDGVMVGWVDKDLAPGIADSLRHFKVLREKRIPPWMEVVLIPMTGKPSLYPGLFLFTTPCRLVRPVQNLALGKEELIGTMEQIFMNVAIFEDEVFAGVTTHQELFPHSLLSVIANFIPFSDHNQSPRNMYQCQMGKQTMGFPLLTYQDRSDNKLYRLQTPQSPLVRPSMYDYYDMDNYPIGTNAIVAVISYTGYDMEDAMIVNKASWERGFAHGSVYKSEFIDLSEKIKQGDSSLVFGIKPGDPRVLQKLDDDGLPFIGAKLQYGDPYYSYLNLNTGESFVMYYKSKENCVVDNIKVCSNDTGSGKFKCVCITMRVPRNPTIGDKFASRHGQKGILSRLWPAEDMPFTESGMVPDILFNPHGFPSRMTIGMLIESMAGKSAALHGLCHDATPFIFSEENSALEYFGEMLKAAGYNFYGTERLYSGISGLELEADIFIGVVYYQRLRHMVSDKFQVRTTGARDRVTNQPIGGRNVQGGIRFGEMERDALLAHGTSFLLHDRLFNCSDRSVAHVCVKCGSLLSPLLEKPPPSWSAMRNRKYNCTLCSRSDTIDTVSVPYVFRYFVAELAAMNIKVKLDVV
UniProt Q6P1K2: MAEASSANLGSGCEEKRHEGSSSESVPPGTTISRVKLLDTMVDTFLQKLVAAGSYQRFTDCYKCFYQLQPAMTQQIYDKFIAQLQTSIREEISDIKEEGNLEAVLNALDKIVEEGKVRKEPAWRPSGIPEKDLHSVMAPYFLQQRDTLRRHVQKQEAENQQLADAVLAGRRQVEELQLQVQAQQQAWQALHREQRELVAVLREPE
UniProt Q969H6: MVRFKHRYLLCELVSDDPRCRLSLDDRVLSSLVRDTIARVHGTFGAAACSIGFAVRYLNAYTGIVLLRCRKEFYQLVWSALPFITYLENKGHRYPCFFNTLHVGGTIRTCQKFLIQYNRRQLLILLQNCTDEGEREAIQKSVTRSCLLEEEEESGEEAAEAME
UniProt Q96AD5: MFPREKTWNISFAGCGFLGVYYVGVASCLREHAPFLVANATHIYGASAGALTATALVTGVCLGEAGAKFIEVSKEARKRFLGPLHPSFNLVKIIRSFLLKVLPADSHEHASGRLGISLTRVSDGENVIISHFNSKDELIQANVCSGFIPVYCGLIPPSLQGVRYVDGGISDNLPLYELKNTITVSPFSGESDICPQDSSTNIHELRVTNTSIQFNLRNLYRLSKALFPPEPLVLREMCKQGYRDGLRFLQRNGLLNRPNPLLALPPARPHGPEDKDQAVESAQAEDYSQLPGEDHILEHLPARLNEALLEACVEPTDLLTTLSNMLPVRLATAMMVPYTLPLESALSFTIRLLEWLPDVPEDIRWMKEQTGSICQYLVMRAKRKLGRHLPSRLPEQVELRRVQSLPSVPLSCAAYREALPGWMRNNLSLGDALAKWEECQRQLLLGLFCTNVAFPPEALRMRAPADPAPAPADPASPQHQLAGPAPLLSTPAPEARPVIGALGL
UniProt Q13136: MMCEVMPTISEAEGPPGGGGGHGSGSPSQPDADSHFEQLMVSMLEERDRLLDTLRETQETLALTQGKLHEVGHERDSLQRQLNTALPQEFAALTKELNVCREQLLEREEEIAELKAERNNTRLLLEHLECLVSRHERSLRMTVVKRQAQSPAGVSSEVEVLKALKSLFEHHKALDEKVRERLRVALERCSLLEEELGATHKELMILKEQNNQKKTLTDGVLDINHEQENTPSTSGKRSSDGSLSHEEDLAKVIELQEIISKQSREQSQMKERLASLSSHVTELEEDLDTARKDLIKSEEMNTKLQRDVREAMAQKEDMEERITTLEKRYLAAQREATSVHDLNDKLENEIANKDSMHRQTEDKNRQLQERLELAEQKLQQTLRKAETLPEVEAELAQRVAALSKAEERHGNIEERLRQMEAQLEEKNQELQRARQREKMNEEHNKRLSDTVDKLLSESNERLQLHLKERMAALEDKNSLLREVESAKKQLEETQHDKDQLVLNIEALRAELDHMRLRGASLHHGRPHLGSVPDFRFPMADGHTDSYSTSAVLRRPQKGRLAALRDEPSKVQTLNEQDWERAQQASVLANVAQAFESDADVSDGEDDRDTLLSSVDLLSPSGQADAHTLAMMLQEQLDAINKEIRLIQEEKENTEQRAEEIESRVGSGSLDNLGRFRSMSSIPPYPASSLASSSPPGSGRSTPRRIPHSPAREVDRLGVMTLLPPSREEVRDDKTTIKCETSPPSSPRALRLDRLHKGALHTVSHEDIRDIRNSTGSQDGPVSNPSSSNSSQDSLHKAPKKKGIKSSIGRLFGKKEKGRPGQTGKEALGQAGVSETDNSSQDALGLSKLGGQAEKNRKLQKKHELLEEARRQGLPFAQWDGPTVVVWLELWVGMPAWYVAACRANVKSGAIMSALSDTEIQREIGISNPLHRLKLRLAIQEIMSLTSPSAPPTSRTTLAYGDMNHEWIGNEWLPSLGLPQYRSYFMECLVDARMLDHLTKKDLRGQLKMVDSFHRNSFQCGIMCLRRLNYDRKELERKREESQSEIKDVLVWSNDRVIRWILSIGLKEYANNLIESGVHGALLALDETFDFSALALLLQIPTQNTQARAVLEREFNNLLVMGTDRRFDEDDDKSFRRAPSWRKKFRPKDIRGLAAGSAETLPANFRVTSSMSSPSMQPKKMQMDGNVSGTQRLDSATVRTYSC
UniProt Q14181: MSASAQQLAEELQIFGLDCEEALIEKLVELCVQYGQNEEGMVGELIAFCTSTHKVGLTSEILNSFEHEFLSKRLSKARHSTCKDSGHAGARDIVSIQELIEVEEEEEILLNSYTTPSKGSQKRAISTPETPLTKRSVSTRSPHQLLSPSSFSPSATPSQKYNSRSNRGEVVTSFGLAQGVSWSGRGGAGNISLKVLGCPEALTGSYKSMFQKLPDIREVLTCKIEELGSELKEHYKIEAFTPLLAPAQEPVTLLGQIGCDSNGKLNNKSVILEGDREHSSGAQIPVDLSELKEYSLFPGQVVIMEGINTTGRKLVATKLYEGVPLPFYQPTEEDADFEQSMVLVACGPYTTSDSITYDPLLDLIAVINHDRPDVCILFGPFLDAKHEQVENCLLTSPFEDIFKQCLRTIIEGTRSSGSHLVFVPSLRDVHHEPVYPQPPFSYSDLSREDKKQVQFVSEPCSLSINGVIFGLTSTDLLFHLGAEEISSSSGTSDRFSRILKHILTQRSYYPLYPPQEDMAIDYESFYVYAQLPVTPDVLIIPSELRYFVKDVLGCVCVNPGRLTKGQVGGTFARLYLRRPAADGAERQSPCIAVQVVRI
UniProt Q9NUX5: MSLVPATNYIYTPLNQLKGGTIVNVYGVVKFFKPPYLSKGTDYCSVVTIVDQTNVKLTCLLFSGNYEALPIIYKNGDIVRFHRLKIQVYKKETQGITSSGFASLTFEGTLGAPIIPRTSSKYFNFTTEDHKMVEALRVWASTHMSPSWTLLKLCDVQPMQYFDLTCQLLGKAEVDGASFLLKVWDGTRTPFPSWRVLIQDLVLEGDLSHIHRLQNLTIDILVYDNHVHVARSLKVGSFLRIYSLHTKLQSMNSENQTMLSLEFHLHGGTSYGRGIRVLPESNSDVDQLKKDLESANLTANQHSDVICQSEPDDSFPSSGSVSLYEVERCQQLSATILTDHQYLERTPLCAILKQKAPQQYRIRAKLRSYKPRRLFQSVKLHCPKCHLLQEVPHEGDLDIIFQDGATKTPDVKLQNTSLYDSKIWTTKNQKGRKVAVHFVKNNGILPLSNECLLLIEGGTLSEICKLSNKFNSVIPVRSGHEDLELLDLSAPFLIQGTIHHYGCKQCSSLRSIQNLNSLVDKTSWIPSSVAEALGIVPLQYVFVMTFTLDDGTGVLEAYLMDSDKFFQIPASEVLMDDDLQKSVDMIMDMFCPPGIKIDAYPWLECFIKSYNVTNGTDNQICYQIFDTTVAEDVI
UniProt O95707: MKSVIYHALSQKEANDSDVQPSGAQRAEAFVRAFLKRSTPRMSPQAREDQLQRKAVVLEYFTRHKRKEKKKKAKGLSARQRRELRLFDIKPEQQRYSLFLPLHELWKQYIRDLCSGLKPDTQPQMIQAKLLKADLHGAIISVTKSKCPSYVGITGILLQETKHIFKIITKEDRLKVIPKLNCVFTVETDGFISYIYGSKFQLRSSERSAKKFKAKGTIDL
UniProt Q02809: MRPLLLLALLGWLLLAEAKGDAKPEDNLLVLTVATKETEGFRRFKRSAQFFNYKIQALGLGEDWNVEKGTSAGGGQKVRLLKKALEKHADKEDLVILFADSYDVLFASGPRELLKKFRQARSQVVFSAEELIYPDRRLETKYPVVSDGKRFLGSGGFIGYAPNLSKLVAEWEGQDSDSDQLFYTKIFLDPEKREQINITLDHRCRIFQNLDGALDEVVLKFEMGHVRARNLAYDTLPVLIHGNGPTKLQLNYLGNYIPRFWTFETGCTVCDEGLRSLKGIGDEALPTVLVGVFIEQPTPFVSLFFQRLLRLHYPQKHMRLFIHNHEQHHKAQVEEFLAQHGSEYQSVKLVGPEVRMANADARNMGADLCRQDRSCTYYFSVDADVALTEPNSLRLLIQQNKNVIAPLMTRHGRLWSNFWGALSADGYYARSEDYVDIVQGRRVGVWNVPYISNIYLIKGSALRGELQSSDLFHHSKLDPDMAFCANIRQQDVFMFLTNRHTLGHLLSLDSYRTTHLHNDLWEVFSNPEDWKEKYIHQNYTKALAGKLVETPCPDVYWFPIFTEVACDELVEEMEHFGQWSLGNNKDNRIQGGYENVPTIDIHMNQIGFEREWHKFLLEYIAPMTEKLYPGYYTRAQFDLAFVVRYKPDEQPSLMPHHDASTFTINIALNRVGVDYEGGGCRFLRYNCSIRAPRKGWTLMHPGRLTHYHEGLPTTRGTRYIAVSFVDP
UniProt Q9Y535: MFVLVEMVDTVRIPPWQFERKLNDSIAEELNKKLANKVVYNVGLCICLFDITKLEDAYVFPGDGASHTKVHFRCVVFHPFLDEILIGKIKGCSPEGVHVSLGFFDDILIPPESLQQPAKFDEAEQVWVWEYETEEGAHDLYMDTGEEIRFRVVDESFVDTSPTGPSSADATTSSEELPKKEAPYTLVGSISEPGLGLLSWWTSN
UniProt Q9NQ55: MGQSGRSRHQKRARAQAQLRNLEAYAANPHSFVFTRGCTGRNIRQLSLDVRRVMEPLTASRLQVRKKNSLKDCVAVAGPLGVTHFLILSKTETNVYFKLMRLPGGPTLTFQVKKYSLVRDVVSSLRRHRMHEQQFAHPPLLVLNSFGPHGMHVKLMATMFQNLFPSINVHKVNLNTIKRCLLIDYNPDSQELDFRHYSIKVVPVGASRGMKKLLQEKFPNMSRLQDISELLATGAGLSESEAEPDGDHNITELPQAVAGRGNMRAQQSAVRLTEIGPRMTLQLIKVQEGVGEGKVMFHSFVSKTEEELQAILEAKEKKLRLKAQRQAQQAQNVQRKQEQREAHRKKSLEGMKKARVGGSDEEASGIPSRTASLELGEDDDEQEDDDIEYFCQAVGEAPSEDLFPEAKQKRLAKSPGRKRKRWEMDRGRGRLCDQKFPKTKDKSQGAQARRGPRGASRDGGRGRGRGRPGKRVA

Some of the results follow.

Compound in the first assay: C1CN(CCC1(CC2=CC=C(C=C2)Cl)N)C3=NC=NC4=C3C=CN4
In words: log2 fold change, soluble protein after heating vs DMSO (PISA); higher = thermal stabilisation; K562 lysate, 10 uM; active = over 0.2 and 3.5 SD of the protein, either way, in both replicates (recomputed). In a few lines:
(§1)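 The values are log-two fold changes in thermal stability compared with solvent controls and come from duplicates. They were obtained by TMTpro 16plex LC-MS/MS, with channel sums equalised, on the supernatant after 21,000xg for 90 min. That supernatant came from crude K562 extract at 1 mg/mL protein treated with 10 μM compound for 30 min, heated for 3 min across 48°C-58°C, pooled and brought to 0.5% NP-40 at 4°C.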
As for POLD1 (UniProt P28340), the log2 fold change is inactive: 0.007.

Regarding POLR1D (UniProt P0DPB6), the log2 fold change was inactive: 0.092.

POLR2G (UniProt P62487): the log2 fold change was inactive: 0.02.

For PNKD isoform 2 (UniProt Q8N490), the log2 fold change was inactive: 0.042.

Consider POP1 (UniProt Q99575), for which the log2 fold change is inactive: -0.008.

In the case of POLR2B (UniProt P30876), the log2 fold change was inactive: -0.004.

Take POGLUT2 (UniProt Q6UW63): the log2 fold change was inactive: 0.048.

On to PLXNA1 (UniProt Q9UIW2), for which the log2 fold change is inactive: 0.032.

As for PPIB (UniProt P23284), the log2 fold change is inactive: 0.001.

Turning to POLR1B isoform 3 (UniProt Q9H9Y6), the log2 fold change was inactive: -0.025.

For PMF1 (UniProt Q6P1K2), the log2 fold change was inactive: 0.087.

Turning to PLXNB2 (UniProt O15031), the log2 fold change was inactive: 0.049.

In the case of PNKD (UniProt Q8N490), the log2 fold change is inactive: 0.159.

As to PPFIA2 (UniProt O75334), the log2 fold change was inactive: -0.074.

Take POP5 (UniProt Q969H6): the log2 fold change was inactive: -0.025.

Regarding POLR2H (UniProt P52434), the log2 fold change is inactive: -0.014.

POLD3 (UniProt Q15054): the log2 fold change is inactive: -0.012.

Take PMM2 (UniProt O15305): the log2 fold change is inactive: -0.002.

POLD2 (UniProt P49005): the log2 fold change was inactive: -0.005.

On to PNPLA2 (UniProt Q96AD5), for which the log2 fold change is inactive: 0.077.

As to PPFIA1 (UniProt Q13136), the log2 fold change is inactive: 0.015.

Take POLA2 (UniProt Q14181): the log2 fold change was inactive: -0.003.

POT1 (UniProt Q9NUX5): the log2 fold change is inactive: 0.063.

In the case of PNISR (UniProt Q8TF01), the log2 fold change is inactive: -0.021.

With PMPCA (UniProt Q10713), the log2 fold change was inactive: -0.012.

For POP4 (UniProt O95707), the log2 fold change was inactive: -0.032.

Turning to PLOD1 (UniProt Q02809), the log2 fold change is inactive: 0.008.

Take POLR3B (UniProt Q9NW08): the log2 fold change is inactive: -0.01.

Regarding PMM1 (UniProt Q92871), the log2 fold change is inactive: 0.038.

Consider POLR3H (UniProt Q9Y535), for which the log2 fold change was inactive: 0.027.

On to POLR3G (UniProt O15318), for which the log2 fold change is inactive: 0.

With POGK (UniProt Q9P215), the log2 fold change was inactive: 0.022.

Turning to PPIA (UniProt P62937), the log2 fold change is inactive: 0.009.

For PPA2 (UniProt Q9H2U2), the log2 fold change was inactive: 0.004.

On to POSTN (UniProt Q15063), for which the log2 fold change was inactive: 0.106.

In the case of PPAN isoform 3 (UniProt Q9NQ55), the log2 fold change is inactive: 0.

In the case of PNPLA6 (UniProt Q8IY17), the log2 fold change was inactive: 0.009.

Regarding POLE3 (UniProt Q9NRF9), the log2 fold change was inactive: 0.028.

Compound in another assay: C1COCCN1CCN2C3=CC=CC=C3N=C2NC(=O)C4=CC(=CC=C4)[N+](=O)[O-] [IRAK-1-4 Inhibitor I]
The description is as above. In a few lines:
as §1
Consider POLD1 (UniProt P28340), for which the log2 fold change is inactive: -0.01.

For the target POLR1D (UniProt P0DPB6), the log2 fold change is inactive: 0.018.

As to POLR2G (UniProt P62487), the log2 fold change was inactive: 0.03.

Consider PNKD isoform 2 (UniProt Q8N490), for which the log2 fold change is inactive: 0.

Regarding POP1 (UniProt Q99575), the log2 fold change is inactive: 0.021.

Turning to POLR2B (UniProt P30876), the log2 fold change was inactive: -0.007.

For the target POGLUT2 (UniProt Q6UW63), the log2 fold change is inactive: 0.033.

In the case of PLXNA1 (UniProt Q9UIW2), the log2 fold change is inactive: 0.007.

As to PPIB (UniProt P23284), the log2 fold change is inactive: -0.001.

In the case of POLR1B isoform 3 (UniProt Q9H9Y6), the log2 fold change was inactive: -0.009.

With PMF1 (UniProt Q6P1K2), the log2 fold change was inactive: 0.009.

As for PLXNB2 (UniProt O15031), the log2 fold change was inactive: 0.004.

Regarding PNKD (UniProt Q8N490), the log2 fold change is inactive: 0.026.

Take PPFIA2 (UniProt O75334): the log2 fold change is inactive: -0.022.

Consider POP5 (UniProt Q969H6), for which the log2 fold change was inactive: -0.023.

POLR2H (UniProt P52434): the log2 fold change is inactive: 0.011.

POLD3 (UniProt Q15054): the log2 fold change is inactive: -0.035.

PMM2 (UniProt O15305): the log2 fold change was inactive: -0.052.

Regarding POLD2 (UniProt P49005), the log2 fold change was inactive: -0.024.

PNPLA2 (UniProt Q96AD5): the log2 fold change was inactive: -0.014.

As for PPFIA1 (UniProt Q13136), the log2 fold change is inactive: -0.021.

For POLA2 (UniProt Q14181), the log2 fold change was inactive: 0.002.

With POT1 (UniProt Q9NUX5), the log2 fold change was inactive: 0.071.

As for PNISR (UniProt Q8TF01), the log2 fold change is inactive: 0.002.

For PMPCA (UniProt Q10713), the log2 fold change is inactive: 0.007.

POP4 (UniProt O95707): the log2 fold change is inactive: -0.017.

As for PLOD1 (UniProt Q02809), the log2 fold change is inactive: 0.009.

Take POLR3B (UniProt Q9NW08): the log2 fold change is inactive: -0.023.

For PMM1 (UniProt Q92871), the log2 fold change is inactive: -0.013.

On to POLR3H (UniProt Q9Y535), for which the log2 fold change is inactive: 0.095.

As for POLR3G (UniProt O15318), the log2 fold change was inactive: 0.024.

For POGK (UniProt Q9P215), the log2 fold change is inactive: 0.025.

Turning to PPIA (UniProt P62937), the log2 fold change was inactive: -0.014.

On to PPA2 (UniProt Q9H2U2), for which the log2 fold change is inactive: 0.004.

POSTN (UniProt Q15063): the log2 fold change was inactive: 0.047.

Consider PPAN isoform 3 (UniProt Q9NQ55), for which the log2 fold change is inactive: 0.019.

Take PNPLA6 (UniProt Q8IY17): the log2 fold change was inactive: 0.108.

For POLE3 (UniProt Q9NRF9), the log2 fold change is inactive: 0.013.
